*: point of attachment. Cbz = O=C(OCc1ccccc1)*; OtBu = CC(C)(C)O*
Assay: general procedure: solution-phase peptide synthesis; HOBt/DIC; BOP/TEA

Substance | step yield (late stage modification step) [% yield] | other results
Cbz-VPVP-OtBu |  | step yield (coupling step): 68% yield
Z-Val-Pro-Val-Pro-Ara-C |  | conjugation yield (conjugation step): 22% yield
Cbz-VPVP-OH | 84 | 
H-Val-Pro-Val-Pro-Ara-C | 90 | 
